Results are given in words; binding and its absence hold for the method and conditions named. In cells and extracts the contact can be indirect. Binding calls can cover weak binding; strength is not graded here. Where a sequence is shown, tags or fusion partners need not be part of it.
Molecular target: TUD1-cLUC (rice)
Assay: split reporter

binding: binds
B1: IDR1-nLUC (protein, UniProt Q0DJ33 1-380)
chain: MGSSCSRSHSLSEAETTKNAKSADIDRRILQETKAEQHIHKLLLLGAGESGKSTIFKQIKLLFQTGFDEAELRSYTSVIHANVYQTIKILYEGAKELSQVESDSSKYVISPDNQEIGEKLSDIDGRLDYPLLNKELVLDVKRLWQDPAIQETYLRGSILQLPDCAQYFMENLDRLAEAGYVPTKEDVLYARVRTNGVVQIQFSPVGENKRGGEVYRLYDVGGQRNERRKWIHLFEGVNAVIFCAAISEYDQMLFEDETKNRMMETKELFDWVLKQRCFEKTSFILFLNKFDIFEKKIQKVPLSVCEWFKDYQPIAPGKQEVEHAYEFVKKKFEELYFQSSKPDRVDRVFKIYRTTALDQKLVKKTFKLIDESMRRSREGT

Reference: doi:10.1101/2020.08.24.264556
